Measured values reported in PMC2694809.
Results are given in words; binding and its absence hold for the method and conditions named. In cells and extracts the contact can be indirect. Some entries that bind do so weakly or less than the wild type.

T1: mouse CD81 (mouse) (UniProt P35762)
T1 sequence (chain, biotin (cell surface biotinylation with EZ-link-Sulfo-NHS-LC-biotin)): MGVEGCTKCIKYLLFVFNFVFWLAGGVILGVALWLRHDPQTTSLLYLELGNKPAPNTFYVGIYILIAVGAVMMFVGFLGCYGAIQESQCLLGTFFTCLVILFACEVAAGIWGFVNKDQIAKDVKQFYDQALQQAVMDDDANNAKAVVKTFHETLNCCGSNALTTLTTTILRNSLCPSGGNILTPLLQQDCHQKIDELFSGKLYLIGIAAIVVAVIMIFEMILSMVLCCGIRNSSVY

T2: human CD81 (human (endogenous in Huh-7)) (UniProt P60033)
T2 sequence (chain, biotin (cell surface biotinylation with EZ-link-Sulfo-NHS-LC-biotin)): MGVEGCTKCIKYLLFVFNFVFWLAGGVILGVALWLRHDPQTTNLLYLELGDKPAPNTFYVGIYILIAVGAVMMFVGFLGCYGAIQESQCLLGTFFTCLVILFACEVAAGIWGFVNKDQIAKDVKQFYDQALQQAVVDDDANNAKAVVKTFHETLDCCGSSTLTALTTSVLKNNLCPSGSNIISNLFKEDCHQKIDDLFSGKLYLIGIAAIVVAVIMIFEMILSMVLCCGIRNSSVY

T3: CD151 (human (endogenous in Huh-7)) (UniProt P48509)
T3 sequence (chain, biotin (cell surface biotinylation with EZ-link-Sulfo-NHS-LC-biotin)): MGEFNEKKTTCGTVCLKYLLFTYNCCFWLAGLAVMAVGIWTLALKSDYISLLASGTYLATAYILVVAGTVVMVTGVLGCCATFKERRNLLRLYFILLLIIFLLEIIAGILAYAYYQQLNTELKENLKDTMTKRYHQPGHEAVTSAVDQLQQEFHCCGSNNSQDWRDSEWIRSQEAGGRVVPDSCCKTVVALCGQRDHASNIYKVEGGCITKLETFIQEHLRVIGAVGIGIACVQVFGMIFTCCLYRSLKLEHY

B1: EWI-2 (protein, UniProt Q969P0 28-613)
chain: REVLVPEGPLYRVAGTAVSISCNVTGYEGPAQQNFEWFLYRPEAPDTALGIVSTKDTQFSYAVFKSRVVAGEVQVQRLQGDAVVLKIARLQAQDAGIYECHTPSTDTRYLGSYSGKVELRVLPDVLQVSAAPPGPRGRQAPTSPPRMTVHEGQELALGCLARTSTQKHTHLAVSFGRSVPEAPVGRSTLQEVVGIRSDLAVEAGAPYAERLAAGELRLGKEGTDRYRMVVGGAQAGDAGTYHCTAAEWIQDPDGSWAQIAEKRAVLAHVDVQTLSSQLAVTVGPGERRIGPGEPLELLCNVSGALPPAGRHAAYSVGWEMAPAGAPGPGRLVAQLDTEGVGSLGPGYEGRHIAMEKVASRTYRLRLEAARPGDAGTYRCLAKAYVRGSGTRLREAASARSRPLPVHVREEGVVLEAVAWLAGGTVYRGETASLLCNISVRGGPPGLRLAASWWVERPEDGELSSVPAQLVGGVGQDGVAELGVRPGGGPVSVELVGPRSHRLRLHSLGPEDEGVYHCAPSAWVQHADYSWYQAGSARSGPVTVYPYMHALDTLFVPLLVGTGVALVTGATVLGTITCCFMKRLRKR
modifications: biotin (cell surface biotinylation with EZ-link-Sulfo-NHS-LC-biotin)
B2: EWI-F (protein, UniProt Q9P2B2 26-879)
chain: VPTATLVRVVGTELVIPCNVSDYDGPSEQNFDWSFSSLGSSFVELASTWEVGFPAQLYQERLQRGEILLRRTANDAVELHIKNVQPSDQGHYKCSTPSTDATVQGNYEDTVQVKVLADSLHVGPSARPPPSLSLREGEPFELRCTAASASPLHTHLALLWEVHRGPARRSVLALTHEGRFHPGLGYEQRYHSGDVRLDTVGSDAYRLSVSRALSADQGSYRCIVSEWIAEQGNWQEIQEKAVEVATVVIQPSVLRAAVPKNVSVAEGKELDLTCNITTDRADDVRPEVTWSFSRMPDSTLPGSRVLARLDRDSLVHSSPHVALSHVDARSYHLLVRDVSKENSGYYYCHVSLWAPGHNRSWHKVAEAVSSPAGVGVTWLEPDYQVYLNASKVPGFADDPTELACRVVDTKSGEANVRFTVSWYYRMNRRSDNVVTSELLAVMDGDWTLKYGERSKQRAQDGDFIFSKEHTDTFNFRIQRTTEEDRGNYYCVVSAWTKQRNNSWVKSKDVFSKPVNIFWALEDSVLVVKARQPKPFFAAGNTFEMTCKVSSKNIKSPRYSVLIMAEKPVGDLSSPNETKYIISLDQDSVVKLENWTDASRVDGVVLEKVQEDEFRYRMYQTQVSDAGLYRCMVTAWSPVRGSLWREAATSLSNPIEIDFQTSGPIFNASVHSDTPSVIRGDLIKLFCIITVEGAALDPDDMAFDVSWFAVHSFGLDKAPVLLSSLDRKGIVTTSRRDWKSDLSLERVSVLEFLLQVHGSEDQDFGNYYCSVTPWVKSPTGSWQKEAEIHSKPVFITVKMDVLNAFKYPLLIGVGLSTVIGLLSCLIGYCSSHWCCKKEVQETRRERRRLMSMEMD
modifications: biotin (cell surface biotinylation with EZ-link-Sulfo-NHS-LC-biotin)
B3: human CD81 (protein, UniProt P60033 1-236)
chain: T2 sequence (chain, biotin (cell surface biotinylation with EZ-link-Sulfo-NHS-LC-biotin))
modifications: biotin (cell surface biotinylation with EZ-link-Sulfo-NHS-LC-biotin)

How the values were obtained:
Experiment in all cases: co-IP; cells surface biotinylated, lysed in 1% Brij97 in D-PBS with Ca and Mg; 2 h at 4°C with mAbs (5A6, MT81, MT81w, TS151) on protein A-sepharose; non-reducing SDS-PAGE, blot with peroxidase-conjugated streptavidin
mouse CD81 (mouse) = target: T1, mouse CD81 (mouse)
[1] = target: T2, human CD81 (human (endogenous in Huh-7))
[2] = target: T3, CD151 (human (endogenous in Huh-7))

Binder | binding (mouse CD81 (mouse)) | binding [1] | binding [2]
B1 | binds | binds | –
B2 | binds | binds | –
B3 | – | – | binds
